From paper PMC5095914
These are yes or no findings as the source states them, for the method shown. For some of these results: In cells and extracts the contact can be indirect. Some entries that bind do so weakly or less than the wild type.

The chains behind the UniProt entries cited, without tags or fusion partners.
UniProt P0AG99: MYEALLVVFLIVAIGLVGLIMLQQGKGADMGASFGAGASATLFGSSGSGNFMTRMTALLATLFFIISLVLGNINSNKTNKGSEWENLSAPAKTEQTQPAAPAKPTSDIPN
UniProt P0AG96: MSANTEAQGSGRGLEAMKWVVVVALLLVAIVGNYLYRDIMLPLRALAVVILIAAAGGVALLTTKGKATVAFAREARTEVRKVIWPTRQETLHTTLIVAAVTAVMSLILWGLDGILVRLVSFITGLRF

B1: SecD (protein, UniProt P0AG90 1-615)
chain: MLNRYPLWKYVMLIVVIVIGLLYALPNLFGEDPAVQITGARGVAASEQTLIQVQKTLQEEKITAKSVALEEGAILARFDSTDTQLRAREALMGVMGDKYVVALNLAPATPRWLAAIHAEPMKLGLDLRGGVHFLMEVDMDTALGKLQEQNIDSLRSDLREKGIPYTTVRKENNYGLSITFRDAKARDEAIAYLSKRHPDLVISSQGSNQLRAVMSDARLSEAREYAVQQNINILRNRVNQLGVAEPVVQRQGADRIVVELPGIQDTARAKEILGATATLEFRLVNTNVDQAAAASGRVPGDSEVKQTREGQPVVLYKRVILTGDHITDSTSSQDEYNQPQVNISLDSAGGNIMSNFTKDNIGKPMATLFVEYKDSGKKDANGRAVLVKQEEVINIANIQSRLGNSFRITGINNPNEARQLSLLLRAGALIAPIQIVEERTIGPTLGMQNIEQGLEACLAGLLVSILFMIIFYKKFGLIATSALIANLILIVGIMSLLPGATLSMPGIAGIVLTLAVAVDANVLINERIKEELSNGRTVQQAIDEGYRGAFSSIFDANITTLIKVIILYAVGTGAIKGFAITTGIGVATSMFTAIVGTRAIVNLLYGGKRVKKLSI
B2: SecF (protein, UniProt P0AG93 1-323)
chain: MAQEYTVEQLNHGRKVYDFMRWDYWAFGISGLLLIAAIVIMGVRGFNWGLDFTGGTVIEITLEKPAEIDVMRDALQKAGFEEPMLQNFGSSHDIMVRMPPAEGETGGQVLGSQVLKVINESTNQNAAVKRIEFVGPSVGADLAQTGAMALMAALLSILVYVGFRFEWRLAAGVVIALAHDVIITLGILSLFHIEIDLTIVASLMSVIGYSLNDSIVVSDRIRENFRKIRRGTPYEIFNVSLTQTLHRTLITSGTTLMVILMLYLFGGPVLEGFSLTMLIGVSIGTASSIYVASALALKLGMKREHMLQQKVEKEGADQPSILP
B3: mechano-sensitive channel protein (MscL) (protein, UniProt P0A742 1-136)
chain: MSIIKEFREFAMRGNVVDLAVGVIIGAAFGKIVSSLVADIIMPPLGLLIGGIDFKQFAVTLRDAQGDIPAVVMHYGVFIQNVFDFLIVAFAIFMAIKLINKLNRKKEEPAAAPAPTKEEVLLTEIRDLLKEQNNRS

Key:
[1] = molecular target: SecG (E. coli (endogenous in strain C43)) (UniProt P0AG99); assay: co-IP; SMALPs (2.5% SMA, no detergent) from wild-type E. coli C43 membranes; monoclonal SecG antibody 3 h at 21°C, protein G overnight at 4°C, TSG buffer (20 mM Tris-HCl pH 8.0, 130 mM NaCl, 10% glycerol); western blotting for the HTL components; control without antibody
[2] = molecular target: mechano-sensitive channel protein (MscL) (UniProt P0A742); assay: native gel or EMSA; BN-PAGE (4-16% Bis-Tris NativePAGE) of 35S-labelled protein translated in vitro and inserted into proteoliposomes (SecYEG, YidC or HTL), after flotation and 5 M urea wash, solubilised in DDM; phosphor imaging

Row | Molecule | binding [1] | binding [2]
1 | SecE (from UniProt P0AG96 1-127) | binds | –
2 | B1 | binds | –
3 | B2 | binds | –
4 | B3 | – | binds
